Results deposited as PubChem BioAssay AID1224826 (NIAID, 2016)

Test: 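Regulators of Tlr4 signalling leading to Tnf-alpha expression in macrophages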 (primary screen)
Cells: RAW264.7 G9 macrophages from mouse bearing reporters for p65 (GFP) and the Tnf promoter (mCherry)
Knock-down reagent: siRNA pool against mouse genes, 100 nM
Duration: 16 h of LPS stimulation, after 2 days of siRNA transfection
Treatment: bacterial lipopolysaccharide (Salmonella minnesota R595), 10 ng/ml
Detection: 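Imaged Tnf reporter mCherry in nuclei, minus background, normalised per plate to the median and expressed as robust z-scores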
Reading the numbers: Tnf reporter robust z-score: higher = stronger Tnf promoter reporter signal after LPS
Hit rule: 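Called active when robust z-score is at most -1.3, matching the median of the Tlr4 knock-down control, or over 3; control wells and wells with under 50 cells never active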
Calls: active = Tnf reporter clearly lowered or raised; inactive = no clear change in Tnf reporter
The whole screen tested about 17,000 reagents; shown is an unselected part. About 1,110 of all reagents (6.6%) were called active. 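Active means lowered or raised reporter signal; replicate intensities are raw and not normalised per plate.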 Entries without a mark were called inactive. Further read-outs or replicates are left out here.

{"target gene": "E130308A19Rik", "fewer than 50 cells in well": "fewer than 50 cells per well; well left out of calls"}
{"target gene": "6030452D12Rik", "Tnf reporter robust z-score": "3.35 (active)", "fewer than 50 cells in well": "enough cells in well"}
{"target gene": "Dclre1b", "Tnf reporter robust z-score": -0.24, "fewer than 50 cells in well": "enough cells in well"}
{"target gene": "Fam161a", "Tnf reporter robust z-score": -0.04, "fewer than 50 cells in well": "enough cells in well"}
{"target gene": "Arhgap4", "fewer than 50 cells in well": "fewer than 50 cells per well; well left out of calls"}
{"target gene": "Anp32e", "Tnf reporter robust z-score": -0.28, "fewer than 50 cells in well": "enough cells in well"}
{"target gene": "Smad5", "Tnf reporter robust z-score": 0.39, "fewer than 50 cells in well": "enough cells in well"}
{"target gene": "5330438D12Rik", "Tnf reporter robust z-score": 0.01, "fewer than 50 cells in well": "enough cells in well"}
{"target gene": "Lmcd1", "Tnf reporter robust z-score": "-1.82 (active)", "fewer than 50 cells in well": "enough cells in well"}
{"target gene": "Nfe2", "Tnf reporter robust z-score": "-1.51 (active)", "fewer than 50 cells in well": "enough cells in well"}
{"target gene": "1700020M10Rik", "fewer than 50 cells in well": "fewer than 50 cells per well; well left out of calls"}
{"target gene": "Rcc2", "fewer than 50 cells in well": "fewer than 50 cells per well; well left out of calls"}
{"target gene": "Defb9", "Tnf reporter robust z-score": 0.29, "fewer than 50 cells in well": "enough cells in well"}
{"target gene": "Bpgm", "Tnf reporter robust z-score": 0.43, "fewer than 50 cells in well": "enough cells in well"}

Hits (from the list above):
{"target gene": "6030452D12Rik", "Tnf reporter robust z-score": "3.35 (active)", "fewer than 50 cells in well": "enough cells in well"}
{"target gene": "Lmcd1", "Tnf reporter robust z-score": "-1.82 (active)", "fewer than 50 cells in well": "enough cells in well"}
{"target gene": "Nfe2", "Tnf reporter robust z-score": "-1.51 (active)", "fewer than 50 cells in well": "enough cells in well"}
